Results published in article PMC7350744.
These are yes or no findings as the source states them, for the method shown. Binding seen in cells or lysates may run through a third protein. Some results given as binding are weak or reduced against the parent protein; the word gives no strength.

By UniProt entry, the sequences of proteins in these tests, tags left out.
UniProt O14497: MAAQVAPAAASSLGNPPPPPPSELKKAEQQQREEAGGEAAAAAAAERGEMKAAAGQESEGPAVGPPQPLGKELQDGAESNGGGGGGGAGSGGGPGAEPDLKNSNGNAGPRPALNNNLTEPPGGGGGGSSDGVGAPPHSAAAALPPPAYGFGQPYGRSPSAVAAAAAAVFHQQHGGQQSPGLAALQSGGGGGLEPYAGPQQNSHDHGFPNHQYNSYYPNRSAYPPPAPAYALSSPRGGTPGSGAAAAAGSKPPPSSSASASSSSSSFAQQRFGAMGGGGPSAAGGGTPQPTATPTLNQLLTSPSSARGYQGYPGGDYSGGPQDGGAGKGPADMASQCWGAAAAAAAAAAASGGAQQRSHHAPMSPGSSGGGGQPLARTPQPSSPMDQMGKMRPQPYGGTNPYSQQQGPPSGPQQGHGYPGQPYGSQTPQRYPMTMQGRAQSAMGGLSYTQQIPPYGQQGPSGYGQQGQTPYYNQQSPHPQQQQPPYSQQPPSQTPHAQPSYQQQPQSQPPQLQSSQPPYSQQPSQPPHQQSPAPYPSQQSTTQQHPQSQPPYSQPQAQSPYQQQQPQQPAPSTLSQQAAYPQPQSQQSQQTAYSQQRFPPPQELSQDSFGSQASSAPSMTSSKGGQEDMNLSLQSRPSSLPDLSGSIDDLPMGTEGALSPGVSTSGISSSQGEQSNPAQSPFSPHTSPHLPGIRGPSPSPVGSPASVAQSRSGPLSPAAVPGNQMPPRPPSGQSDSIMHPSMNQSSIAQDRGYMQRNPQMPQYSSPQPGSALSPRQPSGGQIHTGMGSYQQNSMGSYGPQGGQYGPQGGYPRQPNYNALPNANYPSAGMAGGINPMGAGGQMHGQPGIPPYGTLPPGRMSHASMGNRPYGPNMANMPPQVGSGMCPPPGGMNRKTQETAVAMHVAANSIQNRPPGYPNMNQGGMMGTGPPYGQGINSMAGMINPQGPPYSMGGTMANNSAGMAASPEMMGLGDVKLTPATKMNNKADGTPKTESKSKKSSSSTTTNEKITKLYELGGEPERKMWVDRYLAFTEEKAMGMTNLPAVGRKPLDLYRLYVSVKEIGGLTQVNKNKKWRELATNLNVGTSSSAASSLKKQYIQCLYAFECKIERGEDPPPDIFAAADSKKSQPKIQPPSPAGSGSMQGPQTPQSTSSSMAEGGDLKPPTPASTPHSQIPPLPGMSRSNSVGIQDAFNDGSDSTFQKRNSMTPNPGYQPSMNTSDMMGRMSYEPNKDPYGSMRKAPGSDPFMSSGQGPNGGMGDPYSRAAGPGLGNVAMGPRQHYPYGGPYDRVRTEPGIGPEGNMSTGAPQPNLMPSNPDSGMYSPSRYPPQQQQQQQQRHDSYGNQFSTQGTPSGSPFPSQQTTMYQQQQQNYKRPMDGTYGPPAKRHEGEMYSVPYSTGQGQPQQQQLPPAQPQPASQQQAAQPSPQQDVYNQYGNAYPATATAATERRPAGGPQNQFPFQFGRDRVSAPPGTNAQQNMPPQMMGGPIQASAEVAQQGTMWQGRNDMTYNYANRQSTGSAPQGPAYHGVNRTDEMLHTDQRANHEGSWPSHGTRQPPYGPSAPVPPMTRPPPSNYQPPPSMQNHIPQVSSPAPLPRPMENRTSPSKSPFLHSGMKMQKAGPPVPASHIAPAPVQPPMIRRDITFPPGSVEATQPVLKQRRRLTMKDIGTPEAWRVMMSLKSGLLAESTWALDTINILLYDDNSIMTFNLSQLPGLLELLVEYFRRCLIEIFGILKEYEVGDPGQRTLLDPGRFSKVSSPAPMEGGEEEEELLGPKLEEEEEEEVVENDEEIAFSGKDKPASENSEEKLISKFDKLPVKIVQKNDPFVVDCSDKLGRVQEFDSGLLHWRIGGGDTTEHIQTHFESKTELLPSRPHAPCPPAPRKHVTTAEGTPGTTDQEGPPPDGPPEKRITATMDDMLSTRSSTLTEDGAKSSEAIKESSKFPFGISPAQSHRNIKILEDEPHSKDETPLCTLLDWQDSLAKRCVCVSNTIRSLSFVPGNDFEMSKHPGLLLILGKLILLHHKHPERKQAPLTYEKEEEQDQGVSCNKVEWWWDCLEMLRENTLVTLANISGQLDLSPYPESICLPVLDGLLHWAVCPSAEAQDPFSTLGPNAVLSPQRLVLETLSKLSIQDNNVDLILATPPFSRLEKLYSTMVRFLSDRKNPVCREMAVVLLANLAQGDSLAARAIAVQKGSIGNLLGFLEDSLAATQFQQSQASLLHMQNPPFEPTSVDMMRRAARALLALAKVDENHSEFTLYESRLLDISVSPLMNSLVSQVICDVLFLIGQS
UniProt Q06413: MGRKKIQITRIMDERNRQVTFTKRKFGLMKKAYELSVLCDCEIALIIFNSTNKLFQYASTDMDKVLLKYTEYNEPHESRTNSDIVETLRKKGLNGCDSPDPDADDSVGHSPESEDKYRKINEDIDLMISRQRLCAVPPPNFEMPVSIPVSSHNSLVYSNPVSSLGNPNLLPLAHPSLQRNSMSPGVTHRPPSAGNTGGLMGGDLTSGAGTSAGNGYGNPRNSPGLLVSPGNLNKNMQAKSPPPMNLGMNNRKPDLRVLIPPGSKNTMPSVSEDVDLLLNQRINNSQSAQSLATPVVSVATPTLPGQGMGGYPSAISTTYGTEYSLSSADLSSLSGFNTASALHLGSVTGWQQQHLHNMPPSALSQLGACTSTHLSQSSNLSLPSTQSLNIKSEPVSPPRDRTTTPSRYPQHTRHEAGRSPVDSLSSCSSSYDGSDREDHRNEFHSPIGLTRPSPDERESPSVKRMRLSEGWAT

Target: ARID1A (human (endogenous in H9 hESCs)) (UniProt O14497)
Experiment: co-IP; endogenous proteins from H9 hESC lysates (undifferentiated T0, day 2 or day 6 of cardiac differentiation); Pierce Classic Magnetic IP/Co-IP Kit; detected by Western blotting; IP with anti-ARID1A antibody and, in the reverse direction, of T or MEF2C

## MEF2C (from UniProt Q06413 1-473)
  binding: binds
